The other results are listed elsewhere or left out.
Legend:
Assay in all cases: log2 fold change, soluble protein after heating vs DMSO (PISA); higher = thermal stabilisation; K562 lysate, 10 uM; active = over 0.2 and 3.5 SD of the protein, either way, in both replicates (recomputed)
ibrutinib = compound: C=CC(=O)N1CCC[C@@H](n2nc(-c3ccc(Oc4ccccc4)cc3)c3c(N)ncnc32)C1 [ibrutinib]
Procedure, shortened: (§1)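 Quantification was by TMTpro 16plex LC-MS/MS with equalised channel sums, applied to the supernatant after 21,000xg for 90 min. Samples were crude K562 extract at 1 mg/mL protein in PBS pH 7.4 with 1 mM MgCl2, treated with 10 μM compound for 30 min, heated for 3 min across 48°C-58°C, pooled and brought to 0.5% NP-40 at 4°C. Values are log-two fold changes in thermal stability relative to solvent controls, from duplicates.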

Protein sequences, listed by entry. Tags and fused reporters are not part of them. Lines headed by an entry give the natural chain unless they say otherwise; changes in a name come on top.
UniProt Q9NQ55: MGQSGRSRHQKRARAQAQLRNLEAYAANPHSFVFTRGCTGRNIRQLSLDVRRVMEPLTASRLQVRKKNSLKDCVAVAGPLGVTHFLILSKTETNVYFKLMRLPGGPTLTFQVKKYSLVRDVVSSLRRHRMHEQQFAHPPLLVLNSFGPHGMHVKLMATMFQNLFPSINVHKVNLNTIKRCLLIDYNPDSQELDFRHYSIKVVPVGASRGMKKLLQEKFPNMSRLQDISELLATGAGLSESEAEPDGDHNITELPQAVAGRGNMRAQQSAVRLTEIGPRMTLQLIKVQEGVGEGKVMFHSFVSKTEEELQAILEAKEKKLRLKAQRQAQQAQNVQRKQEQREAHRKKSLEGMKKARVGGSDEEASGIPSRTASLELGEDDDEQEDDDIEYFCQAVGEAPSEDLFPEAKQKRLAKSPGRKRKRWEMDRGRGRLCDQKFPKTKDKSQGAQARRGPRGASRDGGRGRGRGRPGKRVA
UniProt P53350, whole entry, looked up: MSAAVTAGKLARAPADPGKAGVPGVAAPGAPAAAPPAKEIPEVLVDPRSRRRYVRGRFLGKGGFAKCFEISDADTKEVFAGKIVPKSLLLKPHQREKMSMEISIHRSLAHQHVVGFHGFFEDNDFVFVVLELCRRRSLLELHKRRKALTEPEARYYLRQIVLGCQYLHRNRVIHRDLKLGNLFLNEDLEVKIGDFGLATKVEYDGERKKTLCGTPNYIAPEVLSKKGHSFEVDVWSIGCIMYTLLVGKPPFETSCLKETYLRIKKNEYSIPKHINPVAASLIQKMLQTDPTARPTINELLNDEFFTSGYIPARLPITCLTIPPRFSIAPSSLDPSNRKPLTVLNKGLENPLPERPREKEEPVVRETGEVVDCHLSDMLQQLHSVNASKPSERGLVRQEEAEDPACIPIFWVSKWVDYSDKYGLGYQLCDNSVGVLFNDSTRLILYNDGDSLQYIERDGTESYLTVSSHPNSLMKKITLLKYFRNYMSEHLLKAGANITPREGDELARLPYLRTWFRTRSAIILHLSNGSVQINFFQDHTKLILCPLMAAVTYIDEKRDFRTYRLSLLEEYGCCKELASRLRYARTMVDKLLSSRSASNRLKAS
UniProt Q9NR33: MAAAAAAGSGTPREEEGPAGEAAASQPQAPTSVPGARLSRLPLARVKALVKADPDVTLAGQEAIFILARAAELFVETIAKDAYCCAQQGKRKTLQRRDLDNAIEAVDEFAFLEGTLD
UniProt Q6UW63: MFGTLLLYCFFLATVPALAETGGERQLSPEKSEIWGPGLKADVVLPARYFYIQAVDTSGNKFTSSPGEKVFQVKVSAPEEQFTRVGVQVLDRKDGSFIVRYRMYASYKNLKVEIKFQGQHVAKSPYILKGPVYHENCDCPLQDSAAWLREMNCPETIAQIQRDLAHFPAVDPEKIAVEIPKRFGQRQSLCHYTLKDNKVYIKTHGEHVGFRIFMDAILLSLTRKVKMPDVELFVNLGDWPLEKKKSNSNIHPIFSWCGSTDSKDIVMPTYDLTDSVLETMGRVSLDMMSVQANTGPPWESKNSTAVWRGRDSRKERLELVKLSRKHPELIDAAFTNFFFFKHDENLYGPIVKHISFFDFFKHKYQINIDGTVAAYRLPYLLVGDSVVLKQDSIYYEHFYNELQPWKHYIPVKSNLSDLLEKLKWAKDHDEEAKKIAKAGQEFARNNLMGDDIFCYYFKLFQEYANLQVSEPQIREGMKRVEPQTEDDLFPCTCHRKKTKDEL
UniProt Q9BT43: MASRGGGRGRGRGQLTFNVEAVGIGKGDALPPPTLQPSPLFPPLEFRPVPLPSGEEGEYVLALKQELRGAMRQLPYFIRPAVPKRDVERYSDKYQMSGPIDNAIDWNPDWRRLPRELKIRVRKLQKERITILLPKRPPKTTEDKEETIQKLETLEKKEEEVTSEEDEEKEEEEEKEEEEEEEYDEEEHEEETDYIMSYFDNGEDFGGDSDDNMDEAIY
UniProt Q9Y2Y1: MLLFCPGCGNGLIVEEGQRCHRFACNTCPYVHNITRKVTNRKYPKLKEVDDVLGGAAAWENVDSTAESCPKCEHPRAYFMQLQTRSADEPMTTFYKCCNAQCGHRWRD
UniProt Q15181: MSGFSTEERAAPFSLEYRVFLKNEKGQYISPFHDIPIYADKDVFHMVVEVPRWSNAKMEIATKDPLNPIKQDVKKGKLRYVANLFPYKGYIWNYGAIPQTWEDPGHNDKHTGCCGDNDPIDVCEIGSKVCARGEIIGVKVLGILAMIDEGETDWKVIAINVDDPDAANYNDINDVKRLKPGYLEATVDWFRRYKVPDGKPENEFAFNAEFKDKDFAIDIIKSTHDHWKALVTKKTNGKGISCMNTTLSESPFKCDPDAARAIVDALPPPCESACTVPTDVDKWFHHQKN
UniProt Q9GZS1, whole entry, looked up: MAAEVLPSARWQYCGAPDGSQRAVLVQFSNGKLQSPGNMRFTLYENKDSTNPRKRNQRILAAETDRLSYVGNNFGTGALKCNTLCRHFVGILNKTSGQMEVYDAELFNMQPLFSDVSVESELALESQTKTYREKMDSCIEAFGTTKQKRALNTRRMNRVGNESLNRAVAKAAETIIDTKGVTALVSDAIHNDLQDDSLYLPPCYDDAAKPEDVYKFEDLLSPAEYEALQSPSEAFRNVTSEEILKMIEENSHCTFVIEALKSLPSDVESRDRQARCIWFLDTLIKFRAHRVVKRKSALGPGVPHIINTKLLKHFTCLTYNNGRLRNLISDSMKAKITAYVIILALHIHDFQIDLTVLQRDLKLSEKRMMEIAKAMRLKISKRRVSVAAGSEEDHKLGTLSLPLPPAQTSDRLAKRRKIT
UniProt Q96CD2: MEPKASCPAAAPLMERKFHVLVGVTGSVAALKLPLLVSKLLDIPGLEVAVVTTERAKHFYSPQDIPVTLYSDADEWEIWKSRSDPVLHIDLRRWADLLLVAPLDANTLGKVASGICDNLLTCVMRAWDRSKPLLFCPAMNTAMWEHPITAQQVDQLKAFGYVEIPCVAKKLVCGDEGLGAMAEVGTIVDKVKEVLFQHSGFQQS
UniProt O15162: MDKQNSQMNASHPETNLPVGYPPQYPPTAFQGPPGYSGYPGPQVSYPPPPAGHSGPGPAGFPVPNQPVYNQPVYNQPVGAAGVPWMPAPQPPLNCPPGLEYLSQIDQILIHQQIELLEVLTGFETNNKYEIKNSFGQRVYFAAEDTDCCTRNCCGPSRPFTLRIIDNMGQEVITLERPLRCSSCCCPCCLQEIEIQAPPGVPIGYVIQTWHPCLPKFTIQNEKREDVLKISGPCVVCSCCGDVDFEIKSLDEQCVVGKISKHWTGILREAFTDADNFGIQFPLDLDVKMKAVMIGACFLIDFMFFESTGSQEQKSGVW
UniProt Q68D20: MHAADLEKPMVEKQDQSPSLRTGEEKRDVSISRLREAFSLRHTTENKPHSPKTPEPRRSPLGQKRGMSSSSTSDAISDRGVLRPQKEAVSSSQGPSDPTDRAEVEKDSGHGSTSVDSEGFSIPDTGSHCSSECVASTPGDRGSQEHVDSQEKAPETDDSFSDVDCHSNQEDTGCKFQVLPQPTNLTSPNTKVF
UniProt Q8IYS1: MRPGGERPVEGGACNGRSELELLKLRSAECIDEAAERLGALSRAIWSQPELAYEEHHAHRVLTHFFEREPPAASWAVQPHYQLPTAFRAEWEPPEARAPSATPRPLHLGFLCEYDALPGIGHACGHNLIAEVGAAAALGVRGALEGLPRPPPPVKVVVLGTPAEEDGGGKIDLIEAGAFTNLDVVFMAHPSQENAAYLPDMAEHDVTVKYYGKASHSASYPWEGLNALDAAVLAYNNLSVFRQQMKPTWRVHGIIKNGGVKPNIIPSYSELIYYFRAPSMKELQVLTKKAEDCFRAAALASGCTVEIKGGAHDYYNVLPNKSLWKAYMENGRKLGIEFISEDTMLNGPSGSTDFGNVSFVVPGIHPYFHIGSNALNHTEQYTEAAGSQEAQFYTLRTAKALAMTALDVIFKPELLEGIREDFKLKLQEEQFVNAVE
UniProt Q06203, whole entry, looked up: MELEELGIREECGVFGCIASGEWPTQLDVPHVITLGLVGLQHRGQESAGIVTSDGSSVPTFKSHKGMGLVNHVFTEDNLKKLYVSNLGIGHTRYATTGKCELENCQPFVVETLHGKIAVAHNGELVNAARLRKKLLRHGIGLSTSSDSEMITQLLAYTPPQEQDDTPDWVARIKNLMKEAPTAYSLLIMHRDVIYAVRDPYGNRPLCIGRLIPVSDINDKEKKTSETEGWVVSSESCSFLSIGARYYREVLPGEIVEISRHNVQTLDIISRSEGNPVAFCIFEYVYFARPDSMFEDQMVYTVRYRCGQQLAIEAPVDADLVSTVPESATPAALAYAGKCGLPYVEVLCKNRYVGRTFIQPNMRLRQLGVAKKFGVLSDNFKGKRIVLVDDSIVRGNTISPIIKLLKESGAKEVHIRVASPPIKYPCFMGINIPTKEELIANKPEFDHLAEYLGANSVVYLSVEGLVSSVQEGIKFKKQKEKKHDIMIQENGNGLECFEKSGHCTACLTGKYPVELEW
UniProt A8CG34, whole entry, looked up: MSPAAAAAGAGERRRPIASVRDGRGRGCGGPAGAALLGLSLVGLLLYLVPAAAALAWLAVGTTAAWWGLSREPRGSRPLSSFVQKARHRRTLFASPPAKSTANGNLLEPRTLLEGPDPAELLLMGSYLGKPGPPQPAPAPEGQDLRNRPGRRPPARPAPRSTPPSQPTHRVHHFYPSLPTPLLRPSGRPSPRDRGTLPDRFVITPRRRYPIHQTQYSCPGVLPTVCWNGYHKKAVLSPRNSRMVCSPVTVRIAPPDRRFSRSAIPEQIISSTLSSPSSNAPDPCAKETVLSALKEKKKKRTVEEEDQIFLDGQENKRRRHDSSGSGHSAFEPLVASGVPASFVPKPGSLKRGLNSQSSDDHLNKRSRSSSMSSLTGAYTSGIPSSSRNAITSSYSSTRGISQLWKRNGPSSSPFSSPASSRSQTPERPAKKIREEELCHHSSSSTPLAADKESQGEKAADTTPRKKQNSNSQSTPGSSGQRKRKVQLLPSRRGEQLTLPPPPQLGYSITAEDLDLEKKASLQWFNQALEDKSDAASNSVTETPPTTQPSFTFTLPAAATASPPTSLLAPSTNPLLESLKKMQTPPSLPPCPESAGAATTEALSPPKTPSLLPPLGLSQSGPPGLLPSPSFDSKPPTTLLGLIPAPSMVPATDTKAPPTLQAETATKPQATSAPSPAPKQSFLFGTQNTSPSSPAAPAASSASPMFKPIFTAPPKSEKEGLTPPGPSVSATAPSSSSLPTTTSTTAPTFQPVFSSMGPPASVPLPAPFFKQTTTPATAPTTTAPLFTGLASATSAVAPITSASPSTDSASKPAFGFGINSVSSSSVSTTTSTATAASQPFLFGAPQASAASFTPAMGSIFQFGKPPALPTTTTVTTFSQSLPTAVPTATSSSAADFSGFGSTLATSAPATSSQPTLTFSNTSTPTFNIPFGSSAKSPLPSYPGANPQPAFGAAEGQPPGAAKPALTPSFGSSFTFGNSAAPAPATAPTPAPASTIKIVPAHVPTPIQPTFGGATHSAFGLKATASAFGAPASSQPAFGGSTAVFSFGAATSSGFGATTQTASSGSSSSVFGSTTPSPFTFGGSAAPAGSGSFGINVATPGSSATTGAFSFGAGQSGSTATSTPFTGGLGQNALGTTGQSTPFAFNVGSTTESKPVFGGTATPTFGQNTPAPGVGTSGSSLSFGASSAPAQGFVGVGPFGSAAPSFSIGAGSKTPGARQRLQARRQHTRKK
UniProt O75817: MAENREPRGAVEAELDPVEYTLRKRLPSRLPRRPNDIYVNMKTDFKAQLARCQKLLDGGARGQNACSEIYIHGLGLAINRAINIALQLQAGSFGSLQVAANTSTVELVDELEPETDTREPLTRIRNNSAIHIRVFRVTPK
UniProt Q6P1K2: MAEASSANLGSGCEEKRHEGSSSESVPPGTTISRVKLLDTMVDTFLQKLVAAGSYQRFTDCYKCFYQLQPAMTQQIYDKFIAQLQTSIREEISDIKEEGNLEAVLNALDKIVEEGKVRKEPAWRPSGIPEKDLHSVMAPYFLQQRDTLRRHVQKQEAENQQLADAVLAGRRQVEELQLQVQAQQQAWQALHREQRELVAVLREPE

[1] = compound: CC(=O)c1cnc2ccc(-c3cc(Cl)c(O)c(Cl)c3)nc2c1N[C@H]1CC[C@H](CN(C)C)CC1
Procedure, shortened: as §1

ralimetinib = compound: CC(C)(C)Cn1c(N)nc2ccc(-c3[nH]c(C(C)(C)C)nc3-c3ccc(F)cc3)nc21 [ralimetinib]
Procedure, shortened: as §1

[2] = compound: CC(C)(O)CC(=O)NCCn1ccc2ncnc(Nc3ccc(Oc4cccc(C(F)(F)F)c4)c(Cl)c3)c21
Procedure, shortened: as §1

[3] = compound: CC(C)C1=C2N=C(C=C(N2N=C1)NCC3=CC=CC=C3)NCCCCCCN
Procedure, shortened: as §1

[4] = compound: CC1=C(C(CC(=O)N1)C2=CC=C(C=C2)C(F)(F)F)C(=O)NC3=C(C=C4C(=C3)C=NN4)F
Procedure, shortened: as §1

[5] = compound: CC1=C(C2=C(C=C1)C(=O)C3=CC=CC=C3N2CCCN)C
Procedure, shortened: as §1

[6] = compound: CC1=C(C=C(C=C1)NC(=O)C2=CC(=CC=C2)C(C)(C)C#N)NC3=CC4=C(C=C3)N=CN(C4=O)C
Procedure, shortened: as §1

[7] = compound: CC1=C(C=C(C=C1)NC(=O)C2=CC(=CC=C2)N(C)C)NC(=O)C3=CC=C(C=C3)O
Procedure, shortened: as §1

[8] = compound: CC1=CC=C(C=C1)SC2=C3C=C(SC3=CN=C2)C(=O)N
Procedure, shortened: as §1

Measured: log2 fold change

PPAN isoform 3 (UniProt Q9NQ55)
inactive: ibrutinib -0.002 | [1] 0.01 | ralimetinib 0.008 | [2] 0.017 | [3] -0.004 | [4] 0.047 | [5] -0.041 | [6] 0.028 | [7] -0.001 | [8] 0.006

PNKP (UniProt Q96T60)
inactive: ibrutinib -0.009 | [1] -0.031 | ralimetinib -0.015 | [2] -0.035 | [3] -0.34 | [4] -0.022 | [5] 0.001 | [6] -0.016 | [7] 0.159 | [8] -0.051

PLK1 (UniProt P53350)
inactive: ibrutinib -0.004 | [1] 0.069 | ralimetinib 0.009 | [2] 0.015 | [3] 0.068 | [4] 0.022 | [5] -0.019 | [6] 0.032 | [7] 0.036 | [8] -0.014

PLXNA1 (UniProt Q9UIW2)
inactive: ibrutinib 0.004 | [1] 0.017 | ralimetinib 0.023 | [2] -0.019 | [3] -0.042 | [4] 0.002 | [5] -0.01 | [6] 0.008 | [7] 0.005 | [8] -0.001

POLR3A (UniProt O14802)
inactive: ibrutinib 0.001 | [1] -0.028 | ralimetinib 0.025 | [2] -0.001 | [3] -0.009 | [4] -0.002 | [5] -0.027 | [6] -0.01 | [7] 0.005 | [8] 0.008

POLE4 (UniProt Q9NR33)
inactive: ibrutinib 0.012 | [1] 0.011 | ralimetinib -0.007 | [2] -0.01 | [3] 0.073 | [4] -0.209 | [5] -0.031 | [6] 0.162 | [7] 0.032 | [8] -0.008

PPIB (UniProt P23284)
inactive: ibrutinib 0.015 | [1] -0.008 | ralimetinib 0.007 | [2] -0.002 | [3] -0.004 | [4] -0.032 | [5] -0.008 | [6] -0.028 | [7] -0.011 | [8] -0.006

Copied from above (six entries):
PNKP (UniProt Q96T60)
inactive: ibrutinib -0.009 | [1] -0.031 | ralimetinib -0.015 | [2] -0.035 | [3] -0.34 | [4] -0.022 | [5] 0.001 | [6] -0.016 | [7] 0.159 | [8] -0.051

PLK1 (UniProt P53350)
inactive: ibrutinib -0.004 | [1] 0.069 | ralimetinib 0.009 | [2] 0.015 | [3] 0.068 | [4] 0.022 | [5] -0.019 | [6] 0.032 | [7] 0.036 | [8] -0.014

PLXNA1 (UniProt Q9UIW2)
inactive: ibrutinib 0.004 | [1] 0.017 | ralimetinib 0.023 | [2] -0.019 | [3] -0.042 | [4] 0.002 | [5] -0.01 | [6] 0.008 | [7] 0.005 | [8] -0.001

POLR3A (UniProt O14802)
inactive: ibrutinib 0.001 | [1] -0.028 | ralimetinib 0.025 | [2] -0.001 | [3] -0.009 | [4] -0.002 | [5] -0.027 | [6] -0.01 | [7] 0.005 | [8] 0.008

POLE4 (UniProt Q9NR33)
inactive: ibrutinib 0.012 | [1] 0.011 | ralimetinib -0.007 | [2] -0.01 | [3] 0.073 | [4] -0.209 | [5] -0.031 | [6] 0.162 | [7] 0.032 | [8] -0.008

PPIB (UniProt P23284)
inactive: ibrutinib 0.015 | [1] -0.008 | ralimetinib 0.007 | [2] -0.002 | [3] -0.004 | [4] -0.032 | [5] -0.008 | [6] -0.028 | [7] -0.011 | [8] -0.006

Carrying on.

POGLUT2 (UniProt Q6UW63)
inactive: ibrutinib 0.008 | [1] 0.007 | ralimetinib 0.095 | [2] -0.006 | [3] -0.041 | [4] -0.008 | [5] -0.023 | [6] 0.007 | [7] -0.015 | [8] 0

POLR3GL (UniProt Q9BT43)
inactive: ibrutinib -0.287 | [1] 0.003 | ralimetinib -0.013 | [2] -0.121 | [3] -0.085 | [4] -0.036 | [5] -0.077 | [6] 0.053 | [7] -0.08 | [8] 0.027

PMVK (UniProt Q15126)
inactive: ibrutinib 0.028 | [1] 0.022 | ralimetinib 0.05 | [2] -0.021 | [3] -0.086 | [4] -0.057 | [5] 0.036 | [6] 0.033 | [7] 0.056 | [8] -0.004

POLR3K (UniProt Q9Y2Y1)
inactive: ibrutinib 0.039 | [1] 0.044 | ralimetinib -0.011 | [2] 0 | [3] 0.02 | [4] -0.003 | [5] -0.048 | [6] -0.003 | [7] 0.005 | [8] -0.017

PPA1 (UniProt Q15181)
inactive: ibrutinib 0.021 | [1] 0.015 | ralimetinib -0.014 | [2] -0.003 | [3] 0.036 | [4] -0.04 | [5] 0.004 | [6] 0.004 | [7] -0.03 | [8] 0.003

POLR1E (UniProt Q9GZS1)
inactive: ibrutinib -0.04 | [1] 0.005 | ralimetinib 0.018 | [2] -0.004 | [3] -0.013 | [4] -0.022 | [5] 0.006 | [6] 0.01 | [7] 0.026 | [8] 0.032

POR (UniProt P16435)
inactive: ibrutinib -0.002 | [1] -0.031 | ralimetinib -0.017 | [2] -0.025 | [3] -0.025 | [4] 0.006 | [5] 0.015 | [6] -0.012 | [7] -0.004 | [8] -0.023

PLXNB2 (UniProt O15031)
inactive: ibrutinib 0.019 | [1] 0.016 | ralimetinib 0.035 | [2] -0.026 | [3] -0.03 | [4] 0.033 | [5] 0.006 | [6] -0.02 | [7] -0.003 | [8] -0.016

PPCDC (UniProt Q96CD2)
inactive: ibrutinib 0.016 | [1] 0.023 | ralimetinib 0.067 | [2] -0.157 | [3] 0.064 | [4] -0.023 | [5] -0.033 | [6] 0.019 | [7] -0.041 | [8] 0.003

POP1 (UniProt Q99575)
inactive: ibrutinib 0.045 | [1] -0.021 | ralimetinib -0.005 | [2] -0.044 | [3] -0.049 | [4] 0.01 | [5] -0.017 | [6] 0.032 | [7] -0.005 | [8] -0.001

PLIN3 (UniProt O60664)
inactive: ibrutinib 0.011 | [1] 0.022 | ralimetinib 0 | [2] 0.029 | [3] 0.006 | [4] -0.012 | [5] 0.025 | [6] 0.003 | [7] -0.004 | [8] 0.016

PLSCR1 (UniProt O15162)
inactive: ibrutinib 0.022 | [1] 0.005 | ralimetinib -0.022 | [2] 0.003 | [3] -0.008 | [4] -0.054 | [5] -0.001 | [6] 0.038 | [7] -0.07 | [8] -0.049

PMS2CL (UniProt Q68D20)
inactive: ibrutinib 0.127 | [1] -0.007 | ralimetinib -0.028 | [2] -0.066 | [6] -0.071 | [7] 0.015 | [8] -0.034

PM20D2 (UniProt Q8IYS1)
inactive: ibrutinib -0.062 | [1] 0.089 | ralimetinib -0.234 | [2] 0.153 | [7] -0.135 | [8] -0.025

POLR2D (UniProt O15514)
inactive: ibrutinib 0.147 | [1] 0.001 | ralimetinib -0.07 | [2] -0.015 | [3] 0.016 | [4] 0.004 | [5] -0.067 | [6] -0.022 | [7] -0.016 | [8] 0.002

POLR3F (UniProt Q9H1D9)
inactive: ibrutinib 0.016 | [1] -0.016 | ralimetinib 0.045 | [2] -0.028 | [3] -0.008 | [4] 0.023 | [5] -0.007 | [6] -0.023 | [7] -0.008 | [8] 0.008

PLP2 (UniProt Q04941)
inactive: ibrutinib -0.012 | [1] -0.027 | [3] -0.188 | [4] -0.036 | [5] 0.026 | [6] 0.048 | [8] 0.049

POLDIP3 (UniProt Q9BY77)
inactive: ibrutinib 0.055 | [1] -0.014 | ralimetinib 0.02 | [2] 0.042 | [3] -0.028 | [4] 0.061 | [5] -0.095 | [6] 0.075 | [7] -0.034 | [8] 0.011

PPAT (UniProt Q06203)
inactive: ibrutinib 0.028 | [1] -0.003 | ralimetinib 0.02 | [2] 0.021 | [3] -0.014 | [4] -0.043 | [5] -0.005 | [6] 0.006 | [7] -0.026 | [8] -0.007

POM121C (UniProt A8CG34)
inactive: ibrutinib -0.167 | [1] 0.008 | ralimetinib -0.127 | [2] 0.016 | [3] 0.028 | [7] -0.028 | [8] 0.034

POP7 (UniProt O75817)
inactive: ibrutinib 0.111 | [1] -0.011 | ralimetinib 0.002 | [2] 0.042 | [3] 0.097 | [4] 0.133 | [5] -0.006 | [6] 0.005 | [7] -0.01 | [8] -0.042

POLD3 (UniProt Q15054)
inactive: ibrutinib 0.018 | [1] 0.006 | ralimetinib -0.027 | [2] -0.004 | [3] 0.035 | [4] 0.019 | [5] -0.008 | [6] -0.022 | [7] -0.017 | [8] -0.038

PMF1 (UniProt Q6P1K2)
inactive: ibrutinib 0.127 | [1] 0.04 | ralimetinib 0.019 | [2] -0.074 | [3] 0.001 | [4] 0.003 | [5] 0.032 | [6] -0.032 | [7] 0.001 | [8] -0.037

Source: the supplement of paper PMC10849652
